# Some of the results follow. Some of these compounds have results that are not shown, active ones among them.
# Assay: tubulin staining increase by stabilizing compounds – imaging, high-content imaging, primary screen (AID 2205);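 for toxicity: 0% = mean cell density of plate MIN control wells and 100% = no cells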
# Conditions: HeLa tubulin immunostaining HCS, 24 h, at 10 µM; % Hoechst-high responders: measured here: nuclear condensation Hoechst responders, stronger effect = higher value, share of cells brighter than vehicle mean+2SD; toxicity: measured here: cytotoxicity by cell density
Compound,% Hoechst-high responders [%],toxicity [%]
COc1cccc(C(=O)NCC2(N3CCCCC3)CCCCC2)c1,2.4,4.53
CN(C)c1cccc(C(=O)NCC2(N(C)C)CCCCC2)c1,1.6,7.03
O=C(OC1CN2CCC1CC2)C(CO)(c1ccccc1)c1ccccc1 (stereo not drawn),2.07,12.7
CC(C)N1C(=O)CC2(CCN(CCOC(=O)C(O)(c3ccccc3)c3ccccc3)CC2)C1=O,1.9,1.73
O=C(NCC1(N2CCCCC2)CCCCC1)c1cc([N+](=O)[O-])ccc1Cl,2.48,6.02
C=CCN1CCN(CCOC(=O)C(O)(c2ccccc2)c2ccccc2)CC1,1.68,1.32
CCN1CCCC(OC(=O)C2(O)c3ccccc3C=Cc3ccccc32)C1 (stereo not drawn),2.86,11.2
CN(C)C1CCCC1OC(=O)C(O)(c1ccccc1)c1ccccc1 (stereo not drawn),1.92,5.47
Cc1ccccc1C(=O)NCC1(N2CCCCC2)CCCCC1,1.61,6.85
